The text below walks through data of patent publication EP4782464A1 (Nanjing Legend Biotech Co., Ltd., dated 2026).

Chains of the proteins cited; added tags and fusions are not shown. Residues count along the entry.
UniProt Q3UWA6, residues 20-1072: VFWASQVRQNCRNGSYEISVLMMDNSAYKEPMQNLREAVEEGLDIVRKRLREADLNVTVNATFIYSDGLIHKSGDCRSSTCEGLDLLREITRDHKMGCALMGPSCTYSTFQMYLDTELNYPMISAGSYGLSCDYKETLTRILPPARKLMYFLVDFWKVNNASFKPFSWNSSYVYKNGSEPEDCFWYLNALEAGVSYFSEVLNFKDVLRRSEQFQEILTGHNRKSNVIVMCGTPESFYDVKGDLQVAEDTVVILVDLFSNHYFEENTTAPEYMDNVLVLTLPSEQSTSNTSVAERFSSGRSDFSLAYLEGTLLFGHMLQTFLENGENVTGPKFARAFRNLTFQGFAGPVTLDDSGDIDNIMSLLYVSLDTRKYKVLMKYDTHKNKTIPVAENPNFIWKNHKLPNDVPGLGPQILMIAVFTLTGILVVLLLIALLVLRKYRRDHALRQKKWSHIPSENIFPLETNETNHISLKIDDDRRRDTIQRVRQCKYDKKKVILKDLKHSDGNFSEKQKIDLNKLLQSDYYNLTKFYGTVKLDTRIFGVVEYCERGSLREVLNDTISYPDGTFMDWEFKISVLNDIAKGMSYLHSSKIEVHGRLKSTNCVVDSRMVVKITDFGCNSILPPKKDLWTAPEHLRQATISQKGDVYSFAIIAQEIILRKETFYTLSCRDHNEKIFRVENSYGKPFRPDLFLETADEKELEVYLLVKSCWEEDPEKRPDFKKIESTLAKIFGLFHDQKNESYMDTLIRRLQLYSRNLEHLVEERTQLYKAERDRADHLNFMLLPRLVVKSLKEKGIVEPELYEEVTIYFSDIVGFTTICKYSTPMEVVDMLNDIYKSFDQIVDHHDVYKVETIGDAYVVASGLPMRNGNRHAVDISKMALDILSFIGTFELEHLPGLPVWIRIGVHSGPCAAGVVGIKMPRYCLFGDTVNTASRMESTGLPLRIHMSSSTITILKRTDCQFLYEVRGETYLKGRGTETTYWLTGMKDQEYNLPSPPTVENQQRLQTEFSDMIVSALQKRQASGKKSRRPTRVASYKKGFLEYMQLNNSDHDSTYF

The target of assay [1] is mouse GCC (guanylyl cyclase C, GUCY2C) on cells (mouse) (UniProt Q3UWA6). Description: immunohistochemistry at 0.5 µg/mL on mouse small intestine sections (legend of FIG. 3).
Assay [2] shares this target. The assay can be described thus: immunohistochemistry at 0.5 µg/mL on mouse small intestine sections.
Assay [3] has the same target. The assay can be described thus: flow cytometry on 293T-mouse GCC.Luc cells (legend of FIG. 2B). (A flow cytometer gives signals particle by particle.)
For assay [4] the target is unchanged. Description: flow cytometry on 293T-mouse GCC.Luc cells.

These are yes or no findings as the source states them, for the method shown. Some entries that bind do so weakly or less than the wild type.

B1: 22G5-Rabbit IgG (antibody, V domains shown)
VH: QSVEESGGRLVTPGTPLTLTCTVSGIDLSSYAMTWVRQAPGEGLEWIGTINTISTAYYANWAKGRFTISKTSTTVDLKIASPTTEDTATYFCARDHGYYDVWGQGTLVTVSS
VL: AQVLTQTPSSVSAAVGGTVTINCQASQSVYKNNYLSWYQQKPGQPPRLLIYDASTLASGVPSRFKGSGSGTQFTLTISGVQCDDAATYYCLGEFSCSSGDCAAFGGGTEVVVKG
notes: Recombinant rabbit IgG (IgG1k) expressed in HD CHO-S cells: 22G5 VH-Rabbit IgG CH1-CH2-CH3 and 22G5 VL-Rabbit IgG CL; also called 22G5-Rabbit IgG antibody; 22G5 antibody
For the molecule B1, the binding entry in assay [1], in assay [2], in assay [3] and in assay [4] was “binds” throughout.

B2: PF0098-Rabbit IgG (antibody, V domains shown)
VH: QVQLQQPGAELVKPGASVKLSCKASGYTFTSYWMHWVKQRPGQGLEWIGEIKPSNGLTNYIEKFKNKATLTVDKSATTAYMQLSSLTAEDSAVYYCTRTITTTEGYWFFDVWGAGTTVTVSS
VL: DIVLTQSPASLAVSLGQRATISCRASESVDYYGTSLMQWYQQKPGQPPKLLIYAASNVESGVPARFSGSGSGTDFSLNIHPVEEDDIAMYFCQQTRKVYTFGGGTKLEIKG
notes: also called PF0098-Rabbit IgG antibody
As for B2, in assay [4], the binding entry is “binds”.
